Laboratory results published in US11882834B2, “Microbiocidal thiazole derivatives” (SYNGENTA PARTICIPATIONS AG, priority 2017, dated 2024).
Some entries share one result that the patent states for a list of compounds.

Each compound was assayed on Magnaporthe grisea (Pyricularia Oryzae). Settings: 200 ppm in the formulation; rice leaf segments cv. Ballila, preventative; compared to untreated; 5 to 7 days after application.
Type: in vivo

How did the disease control turn out when `Cc1sc(Nc2cc(F)nc(F)c2)nc1C(=O)NC1CCC1(C)C` (stereo not drawn) [Compound I.r.19, 2-[(2,6-difluoro-4-pyridyl)amino]-N-(2,2-dimethylcyclobutyl)-5-methyl-thiazole-4-carboxamide] was run?
Its disease control is “at least 80%”.

`Cc1sc(Nc2cc(F)nc(F)c2)nc1C(=O)NC1CCC1` [I.a.19, N-cyclobutyl-2-[(2,6-difluoro-4-pyridyl)amino]-5-methyl-thiazole-4-carboxamide] was tested. Which disease control did it give?
The disease control was “at least 80%”.

How did the disease control turn out when `Cc1sc(Nc2cc(F)nc(F)c2)nc1C(=O)NC1CCC1C` (stereo not drawn) [I.c.19, 2-[(2,6-difluoro-4-pyridyl)amino]-5-methyl-N-(2-methylcyclobutyl)thiazole-4-carboxamide] was run?
The disease control was “at least 80%”.
